Results of single-concentration screens

A: 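Whole-parasite assay of Trypanosoma brucei over 72 hours; the read-out is not stated. Compounds at 30 µM. Direction is inferred from retests: higher values go with stronger inhibition. Values scatter widely below zero; nearly all retest evidence comes from the higher of the two concentrations used. About 64,000 compounds were tested under these conditions; 1.5% (about 940) showed 50% or more at least once.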
B: 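Assay of Toxoplasma gondii numbers, read through their beta-galactosidase reporter with a colour substrate. Tested at 10 µM. The record gives no direction; the compounds picked for IC50 retests had high values, so higher reads as fewer parasites. Of about 67,000 compounds tested this way, about 260 (0.38%) reached 50% or more in at least one test.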

The filed quantity is “Percent Effect” (%). The controls that fix the scale are not given in the record; negative values are as filed. This is an unselected part of the compounds tested. A dash means the value is not listed here; it may have been measured.

compound,A,B
Cc1ccccc1C1(O)CCN(C(=O)CCc2cn3ccccc3n2)C1 (configuration not stated),-30.36,-19.13
O=C(NCc1cccnc1)C1CN(c2cnc3ccccc3n2)CCN1 (configuration not stated),-25.51,-8.812
CC(C)SCCn1ccc2[nH]c(=O)c(C#N)cc2c1=O,4.754,-0.634
CC(C)CS(=O)(=O)CC(=O)N1CCCC1c1noc(C2CC2)n1 (configuration not stated),-14.32,-
CC(C)(C)NC(=O)CN1CCCC(c2ccc(C(=O)O)cc2)C1 (configuration not stated),-18.48,9.295
CC(C)Sc1nnc(CCNC(=O)OC(C)(C)C)o1,-11.46,-7.651
CC(C)Cc1cc(C(=O)NCC(O)CN2CCCCCC2)on1 (configuration not stated),2.251,8.108
O=C(c1ccc2nccn2c1)N1CCCC1c1noc(C2CC2)n1 (configuration not stated),-26.67,5.328
Cc1cnn(Cc2cc(F)ccc2F)c1NC(=O)C1COCCO1 (configuration not stated),18.42,-3.744
CN1CCn2nc(-c3nc4ccccc4n3C)cc2C1,-109.5,34.6
CNc1cc(C2CN(Cc3csc(C)n3)CCO2)nc(C)n1 (configuration not stated),-7.667,10.18
Cn1cc(CN2CCOC(c3cccc(-c4cccc(F)c4)n3)C2)cn1 (configuration not stated),-,16.93
CCc1cnc(N2CCN(Cc3ccncc3)CC2)s1,-23.36,4.962
CCN1CC(CN(C)Cc2nc(-c3ccoc3)oc2C)CC1=O (configuration not stated),-14.47,5.998
COc1ccc2c(c1)C(=O)NC1(CC2)CCN(Cc2ccc(F)cc2)C1 (configuration not stated),2.741,13.36
c1cnc(OCc2nnc3n2CCN(Cc2ccco2)C3)nc1,-26.41,-4.901
O=C(NC[C@H]1OC[C@@H](NC2CCC(F)(F)CC2)[C@@H]1O)Nc1ccccc1,-15.36,-0.5417
CN(C)C(=O)c1cc2ncc(C(=O)NC3CC3)cc2n1C,-0.4746,13.96
C1CCN(CCN2CCCCC2C2OCCO2)CC1 (configuration not stated),-21.17,14.66
CC(NC(=O)CN1CCCC1=O)c1ccc(Cl)s1 (configuration not stated),-69.56,-1.321
COc1cnc(C2(O)CCN(C(=O)c3ccncc3)CC2)c(OC)n1,19.02,9.93
O=C(O)C(F)(F)F.[H][C@@]12COC[C@]1([H])[C@H](NC(=O)c1cccn1C)CN2CC1CC1,-12.85,3.632
[H][C@]12CNC[C@@]1(C(=O)NCc1cccc3[nH]ccc13)CN(C(=O)COC)C2,-18.31,8.614
O[C@H]1[C@H](n2cc(-c3cncnc3)nn2)c2ccccc2C12CCNCC2,-10.32,0.6418
CN1CCN(CCCN(C)S(=O)(=O)CC2CCCCC2)CC1,-7.508,16.36
CS(=O)(=O)N[C@@H]1CCN(Cc2ccncc2)[C@H]1Cc1cccnc1,-18.25,9.207
O=C(CCc1ccccc1)N1CCCCC1C1OCCO1 (configuration not stated),-3.43,0.6156
[H][C@@]12C[C@@H](c3nc(C)no3)CN(Cc3ccoc3)[C@]1([H])CCO2,-10.32,-24.85
CN(C)Cc1nn(C)c2c1CN(S(=O)(=O)c1ccccc1F)C2,-47.47,-8.465
Cc1ccc(S(=O)(=O)NC(=O)CCC2CCCO2)cc1 (configuration not stated),-13.03,16.04
CN1CC2(CCN(CCOCCO)CC2)CC(c2ccccc2)C1=O (configuration not stated),-10.78,-
O=C(O)C(F)(F)F.[H][C@]12C[C@@H](C(=O)NCc3cccs3)CO[C@@]1([H])CCN(CCOC)C2,-,0.3765
Cc1nn(C)c(C)c1C1CCCN1Cc1ccc(C(N)=O)cc1 (configuration not stated),-,-17.38
CCOCC1CN(CCN(C)C)Cc2cnn(CC3CCCC3)c21.O=C(O)C(F)(F)F.O=C(O)C(F)(F)F (configuration not stated),-10.76,5.473
CN1CCC(C(=O)N2CCC(c3ccc4c(N)n[nH]c4n3)CC2)CC1,3.625,-1.192
COc1ccc(C(N)=O)cc1NCc1noc(-c2ccsc2)n1,-9.716,12.12
CN1CCC(CCNC(=O)c2ccc(N(C)S(C)(=O)=O)cc2Cl)CC1,-16.58,9.645
O=C(c1ccc(-n2ccnc2)nc1)N1CCN2CCCCC2C1 (configuration not stated),-54.02,-2.516
CNC(=O)C1(c2cnccn2)CCCN1C(=O)c1ccc(OC)cc1 (configuration not stated),-25.62,-0.07297
CSC1(CNc2ccc(Br)cn2)CCOCC1,-15.14,42.06
CCCC1CN(CCOC)C(=O)c2cccnc2O1 (configuration not stated),-11.93,-17.66
Cc1noc(CN2CCN(CC(C)O)CC2)n1 (configuration not stated),28.06,1.899
CN1CCN(C(=O)c2cc3occc3n2Cc2ccccc2F)CC1,2.802,-15.3
Cc1ccc(CC(=O)N2CCCC(n3nc(C)cc3C)C2)cn1 (configuration not stated),-,-27.75
CN(C)C(=O)CN1CCC2(CCCN(c3ncc(F)cn3)C2)C1=O (configuration not stated),-81.39,6.629
COCCC(=O)N1CC[C@@H](N2CCN(C)CC2)[C@@H]1Cc1ccccc1,-,-6.362
CCCc1nc(N2CCCC3(CCNC3)C2)c2cnn(C)c2n1 (configuration not stated),-,23.82
Cc1ccc(CNC2CCN(CCc3ccncc3)CC2)cc1C,51.93,11.17
Cc1nc(C)n(CC2CCCN(Cc3nc(C)c(C)o3)C2)n1 (configuration not stated),-28.66,-2.01
CCC(C)(C)NC(=O)Cn1nnc(CN(C)C(=O)c2ccccc2)n1,6.865,-6.383
Cc1cc2nc(C(C)C)cc(N(C)CC3CCCN3C)n2n1 (configuration not stated),1.491,7.174
CC(C(=O)N1CCc2sccc2C1)N1CCC(N2CCCC2)CC1 (configuration not stated),4.365,-0.9873
COc1cccc(N2CCN(Cc3ncc[nH]3)CC2=O)c1,-21.12,-9.305
OC1(CNc2ccc(Br)cn2)CCSCC1,-41.78,-0.5618
CCc1nnsc1C(=O)N(C)Cc1ccc(Br)o1,-6.439,5.876
COc1cccc(CC(=O)N2CCc3ncnc(C)c3CC2)c1,-37.85,-36.73
C[C@@H]1CN(C(=O)c2ccc(=O)[nH]c2)CC[C@@]1(O)C1CCOCC1,-15.32,-18
CC(C)N(C)CCNC(=O)NCc1ccccc1-n1cccn1,-9.79,0.8021
COCc1ncc(-c2nccn2CCN(C)C)cn1,-17.43,18.23
O=C(O)C(F)(F)F.[H][C@@]12CCCO[C@]1([H])[C@H](NC(=O)c1nccn1C)CN2CC1CCOCC1,-79.05,6.461
CN(Cc1ccc(-n2cccn2)cc1)c1nc(N)nc2c1CCNCC2,26.58,-22.49
COc1cc(C)c(C)cc1S(=O)(=O)NCC(O)c1cccn1C (configuration not stated),93.04,10.3
Cc1c(Br)cccc1C(=O)NC(C)CN1CCCC1=O (configuration not stated),-60.54,-5.364
CC(C)c1cnc(CN(C)C2CCN(CCn3cc(C#N)cn3)C2)o1 (configuration not stated),-0.6258,-22.51
CN(C)CCn1ccnc1C1CCCN(c2nccc3ccccc23)C1 (configuration not stated),-,-4.482
COCC(=O)N[C@H](C(=O)NC(C)c1cccc(C)c1C)C(C)C (some centres not stated),-6.224,-6.409
N[C@H]1CC[C@@H](n2cc(C(=O)NC3COc4ccccc43)nn2)CC1 (some centres not stated),-62.3,14.65
Cn1ccnc1CN1CCN(CC(O)c2ccco2)CC1 (configuration not stated),-18.83,-2.776
COc1ccccc1OCc1cc(C(=O)N2CCC(C(C)O)CC2)n[nH]1 (configuration not stated),-7.648,-5.7
O=C1CN(c2ccc(CNC(=O)NCc3ccoc3)cc2)CCN1,-2.553,-1.829
CC1CCN(CC(=O)N(Cc2ccccc2)Cc2nccs2)C1=O (configuration not stated),-7.86,6.684
Cc1ccc2c(n1)N(CCn1cccn1)CCN(C(=O)NC(C)C)C2,-39.12,16.26
Cc1nnc(CN(Cc2ccco2)Cc2cccc3c2OCO3)n1C,-3.114,1.721
O=C(NCC1CC1)C1CSCN1S(=O)(=O)c1cc(F)cc(F)c1 (configuration not stated),-22.72,-14.39
COc1ncc(C2(O)CCN(Cc3cc(F)cc(F)c3)CC2)c(OC)n1,-7.826,-0.6607
COc1ccc(-c2cnc(CN3CCCC3Cn3cncn3)o2)cc1 (configuration not stated),5.482,-0.059
CC(C)CNC(=O)CNc1c(NCc2ccncc2)c(=O)c1=O,-17.43,-2.512
Cc1noc(C)c1CCCNC(=O)Nc1ccc2c(c1)COC2,-151.1,-15.95
Cc1cc(NC(=O)CCCn2ccnc2C)nc(C(C)C)n1,10.63,-5.139

For reference, 6 entries once more:

{"compound": "Cc1ccccc1C1(O)CCN(C(=O)CCc2cn3ccccc3n2)C1", "stereo": "configuration not stated", "A": -30.36, "B": -19.13}
{"compound": "CC(C)Cc1cc(C(=O)NCC(O)CN2CCCCCC2)on1", "stereo": "configuration not stated", "A": 2.251, "B": 8.108}
{"compound": "CNc1cc(C2CN(Cc3csc(C)n3)CCO2)nc(C)n1", "stereo": "configuration not stated", "A": -7.667, "B": 10.18}
{"compound": "COc1ccc(C(N)=O)cc1NCc1noc(-c2ccsc2)n1", "A": -9.716, "B": 12.12}
{"compound": "CN(C)C(=O)c1cc2ncc(C(=O)NC3CC3)cc2n1C", "A": -0.4746, "B": 13.96}
{"compound": "CCCC1CN(CCOC)C(=O)c2cccnc2O1", "stereo": "configuration not stated", "A": -11.93, "B": -17.66}

The values are deposited in ChEMBL (CHEMBL3988442, “University of Dundee, Small-Polar-MMV Screening Library” (2021)).